Measurements from PubChem BioAssay AID743255 (National Center for Advancing Translational Sciences (NCATS), 2014).
Screen size: about 390,000 compounds; about 910 (0.23%) were called active. This list was built around the results that the source calls inconclusive (neither active nor inactive); the mix of calls is not that of the screen. Calls come from the whole dose curve; as a rule, active = well fitted inhibition curve with a large enough effect; inconclusive = small, poorly fitted or top-dose-only effect; inactive = no such curve, though single readings can be large or run the other way. Potencies beside an inconclusive call are fits to weak or partial responses and may not hold up.

Protein sequences, listed by entry. Tags and fused reporters are not part of them. Lines headed by an entry give the natural chain unless they say otherwise; changes in a name come on top.
UniProt O94782: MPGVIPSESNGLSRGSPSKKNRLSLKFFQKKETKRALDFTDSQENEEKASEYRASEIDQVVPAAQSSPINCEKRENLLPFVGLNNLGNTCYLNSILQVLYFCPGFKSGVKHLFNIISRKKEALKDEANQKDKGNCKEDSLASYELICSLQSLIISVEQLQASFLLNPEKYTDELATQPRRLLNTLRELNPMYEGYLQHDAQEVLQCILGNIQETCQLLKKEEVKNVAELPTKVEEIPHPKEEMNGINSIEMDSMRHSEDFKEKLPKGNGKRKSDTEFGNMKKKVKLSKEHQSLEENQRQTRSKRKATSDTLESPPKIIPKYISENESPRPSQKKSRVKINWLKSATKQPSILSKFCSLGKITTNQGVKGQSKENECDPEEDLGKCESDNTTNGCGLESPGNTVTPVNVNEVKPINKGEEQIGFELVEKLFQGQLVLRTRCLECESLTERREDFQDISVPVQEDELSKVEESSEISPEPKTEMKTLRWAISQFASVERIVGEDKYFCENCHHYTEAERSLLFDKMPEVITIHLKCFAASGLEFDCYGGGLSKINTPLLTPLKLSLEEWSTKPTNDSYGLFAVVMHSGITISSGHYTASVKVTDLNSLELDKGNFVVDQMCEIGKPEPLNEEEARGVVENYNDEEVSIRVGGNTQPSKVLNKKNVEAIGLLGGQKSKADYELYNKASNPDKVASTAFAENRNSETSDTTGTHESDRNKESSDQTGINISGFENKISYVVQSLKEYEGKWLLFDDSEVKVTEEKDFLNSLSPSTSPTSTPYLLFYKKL

The molecules below were run against Ubiquitin carboxyl-terminal hydrolase 1 (Homo sapiens) (UniProt O94782) (assay: Inhibitors of USP1/UAF1: Primary Screen). Settings: recombinant USP1/UAF1, Ub-Rhodamine cleavage fluorescence; activity change, negative = inhibition: at 57.1 µM (top of the series).
Summary of the method: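 High-throughput fluorogenic screen: 1nM USP1/UAF1 complex, Ub-Rho substrate 150nM final, 50mM HEPES pH 7.8 with 0.5mM EDTA, 0.1 mg/ml BSA, 1mM TCEP and 0.01% Tween-20.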
% is set by controls: 0 for no effect and ±100 for the full control effect; potency is the fitted concentration of half-maximal effect.
Note: nearly all actives have a fitted effect of over 60% in size.

Activity change, negative = inhibition, inconclusive:
CCN(c1ccccc1)S(=O)(=O)c1ccc(C(=O)N2CCN(c3ccccc3F)CC2)cc1 -31.7% [inhibitor]

Potency, active:
COc1ccccc1NC(=O)COC(=O)c1ccc([N+](=O)[O-])s1 14.1 µM, CC(C)(C)C(=O)c1sc2nc(-c3cccs3)cc(C(F)(F)F)c2c1N 1.26 µM

Potency, inconclusive:
CCN1/C(=C/C(C)=C/c2sc3ccccc3[n+]2CC)Sc2ccccc21 39.8 µM [inhibitor, partial curve], CCOC(=O)c1c(O)c2cc(Cl)ccc2n(CC)c1=O 50.1 µM [inhibitor, partial curve, poor fit], O=C(CN1CCCCCCC1)Nc1cccc(Cl)c1Cl 22.4 µM [inhibitor, partial curve], Cc1ccc(CCNC(=O)c2ccc3c(Cl)c4c(nc3c2)CCCC4)cc1 1120 µM [inhibitor, partial curve, poor fit], CCCC(=O)Nc1ccccc1OCc1cc(=O)n2cc(C)ccc2n1 0.0891 µM [inhibitor, full curve], COc1ccc([C@H]2CC(=O)C=C(c3cccc(C(C)C)c3)C2)cc1OC 2.51 µM [inhibitor, full curve], NC(=O)c1ccc(NC(=O)c2ccc3c(c2)OCO3)cc1 8.91 µM [inhibitor, single point], CCCCSc1nc2sc3c(c2c(=O)n1-c1ccc(OC)cc1)CCN(C)C3 31.6 µM [inhibitor, partial curve], O=C(Nc1ccc(-n2nncc2-c2ccco2)cc1)c1cccc(F)c1 35.5 µM [inhibitor, single point], O=C(C(=O)N1CCCC1CO)N1CCCC1CO (stereo not drawn) 3.55 µM [inhibitor, partial curve], COc1ccc(CC(=O)N2CCc3cc(OC)c(OC)cc3C2COc2cc(C)cc(C)c2)cc1OC (stereo not drawn) 44.7 µM [inhibitor, partial curve], CCc1ccc(S(=O)(=O)N(C(=O)c2ccncc2)c2ccc3oc(C)c(C(=O)OC)c3c2)cc1 7.08 µM [inhibitor, full curve, poor fit], Cc1cccc(-n2cc(-c3ccccc3)c3c(N4CCOCC4)ncnc32)c1 15.8 µM [inhibitor, partial curve], CCCCCCN1C[C@@H](O)[C@H](n2cc(-c3ccc(F)cc3)nn2)C[C@@H]1c1ccc(C)cc1 0.355 µM [inhibitor, full curve, poor fit], CCc1ccccc1NC(=O)CCC(=O)N1CCN(C(C)=O)CC1 0.282 µM [inhibitor, full curve, poor fit], Cn1cnc([N+](=O)[O-])c1S(=O)(=O)Oc1ccccc1 35.5 µM [inhibitor, single point], Cc1ccc(-c2nc(=O)[nH]c3ccccc23)cc1 5.01 µM [inhibitor, partial curve], CCCCCn1nc(-c2ccccc2)c2nc3ccccc3nc21 31.6 µM [inhibitor, partial curve, poor fit], CSc1nnc2c(n1)OC=Nc1ccc(Br)cc1-2 39.8 µM [inhibitor, partial curve], CCOC(=O)C1=C(O)/C(=C\c2cc(C)n(-c3ccccc3F)c2C)N=C1C 44.7 µM [inhibitor, partial curve, poor fit], CC(C)(C)OC(=O)CC12CCCCC1NC(=O)O2 (stereo not drawn) 50.1 µM [inhibitor, single point], CC1(OC(=O)CCc2ccccc2)C(=O)C=C2C=C(c3ccc(C#N)cc3)N(CCN3CCOCC3)C=C2C1=O (stereo not drawn) 7.08 µM [inhibitor, full curve], COc1ccc(CC(=O)NCCc2sc3nc(-c4ccc(OC)cc4)nn3c2C)cc1 0.282 µM [inhibitor, full curve, poor fit], CCCCCCCCCCCCC/C=C/[C@@H](O)[C@@H](N)CO 44.7 µM [inhibitor, partial curve, poor fit], O=C(Nc1ccc(Br)cc1Br)c1cccc2c1C(=O)N(C1CCCCC1)C2 8.91 µM [inhibitor, partial curve], CCC(=O)N1CCc2cc(Br)cc(S(=O)(=O)CCC(=O)N3CCN(c4ccc(F)cc4)CC3)c21 4.47 µM [inhibitor, partial curve], CCOC(=O)N1CCc2c(sc(NCc3cccc(F)c3)c2C(=O)Nc2ccc(OC)cc2OC)C1 25.1 µM [inhibitor, partial curve], CCOC(=O)c1c(C)[nH]c(CCC(=O)Nc2c(C)cccc2CC)c1C 0.794 µM [inhibitor, full curve, poor fit]

Potency, inactive:
O=C(O)c1cccc(N/N=C/c2ccc(F)c(F)c2)c1, CN(Cc1ccc(F)cc1)C(=O)c1cccc(NS(=O)(=O)c2ccccc2)c1, Cc1ccc2nc(/C(C#N)=C/c3ccc(-c4cccc([N+](=O)[O-])c4)o3)[nH]c2c1, O=C(NCCSc1c(-c2ccccc2)[nH]c2ccccc12)c1cc2ccccc2oc1=O, O=C(CSc1ccc(-c2ccco2)nn1)c1ccccc1, Cc1ccc(C)c(N2CCN(c3ncnc4c3cnn4-c3ccccc3)CC2)c1, O=C1NCCCc2c1oc1ccc(O)cc21, CCN(CC)S(=O)(=O)c1ccc(C(=O)Nc2ccc(Cc3ccncc3)cc2)cc1, Cc1ccc(/C=C2\SC(=S)N(CCCC(=O)NC3CCCC3)C2=O)cc1, COc1ccc(-c2noc(CCC(=O)NCC3CCN(Cc4cccc(C)c4)CC3)n2)cc1, CCCn1cnc2c(SCCc3ccccc3)nc(N)nc21, O=C(O)/C=C/C(=O)Nc1ccccc1C(=O)OCC(=O)c1ccc2c(c1)OCCO2
